Structures can show the parent of a compound that is named as a salt. This is one part of the list. Most entries show no effect beyond the scatter of the controls.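 Using flow cytometry, the assay measures the median γH2AX antibody signal in S-phase Reh cells (a human leukemia line). Each score is the number of standard deviations from the median difference of paired plate sets. Candidate hits scored above 2.5; compounds scoring below -2 lowered MK1775-induced damage.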

The experiment has as its system Reh. Description: Z' of S-phase gammaH2AX difference (drug + MK1775 minus drug alone) (Z-score); higher = stronger synergistic S-phase DNA damage with MK1775. As to conditions: MK1775 concentration 400 nM; first compound 10 µM; 4 h.
For `CC(N)c1cccc(Cl)c1Cl` (stereo not drawn) [(?)-2,3-Dichloro-alpha-methylbenzylamine hydrochloride] + C=CCn1c(=O)c2cnc(Nc3ccc(N4CCN(C)CC4)cc3)nc2n1-c1cccc(C(C)(C)O)n1 [MK1775], the “Z' of S-phase gammaH2AX difference (Z-score)” value was inactive: -0.843. In the case of `Cc1o[nH]c(=O)c1CC(N)C(=O)O` (configuration not stated) [(?)-AMPA hydrobromide] + C=CCn1c(=O)c2cnc(Nc3ccc(N4CCN(C)CC4)cc3)nc2n1-c1cccc(C(C)(C)O)n1 [MK1775] it was inactive: 0.25; in that of `CCN(CCCl)Cc1ccccc1Br` [DSP-4 hydrochloride] + C=CCn1c(=O)c2cnc(Nc3ccc(N4CCN(C)CC4)cc3)nc2n1-c1cccc(C(C)(C)O)n1 [MK1775], inactive: -0.207. Take `CNC(=O)Oc1ccc2c(c1)[C@]1(C)CCN(C)[C@@H]1N2C` [(-)-Physostigmine] + C=CCn1c(=O)c2cnc(Nc3ccc(N4CCN(C)CC4)cc3)nc2n1-c1cccc(C(C)(C)O)n1 [MK1775]: the “Z' of S-phase gammaH2AX difference (Z-score)” value is inactive: 0.537. In the case of `CN(C)C(=O)Oc1cccc([N+](C)(C)C)c1` [Neostigmine bromide] + C=CCn1c(=O)c2cnc(Nc3ccc(N4CCN(C)CC4)cc3)nc2n1-c1cccc(C(C)(C)O)n1 [MK1775] it was inactive: 1.63; in that of `CNC(=O)OCC[N+](C)(C)C` [Methylcarbamylcholine chloride] + C=CCn1c(=O)c2cnc(Nc3ccc(N4CCN(C)CC4)cc3)nc2n1-c1cccc(C(C)(C)O)n1 [MK1775], inactive: -0.0582. With `O=C(CCCN1CCC2(CC1)C(=O)N(CCc1ccc(N=C=S)cc1)CN2c1ccccc1)c1ccc(F)cc1` [N-(p-Isothiocyanatophenethyl)spiperone hydrochloride] + C=CCn1c(=O)c2cnc(Nc3ccc(N4CCN(C)CC4)cc3)nc2n1-c1cccc(C(C)(C)O)n1 [MK1775], the “Z' of S-phase gammaH2AX difference (Z-score)” value is inactive: 0.155. With `CP(=O)(O)CCCN` + C=CCn1c(=O)c2cnc(Nc3ccc(N4CCN(C)CC4)cc3)nc2n1-c1cccc(C(C)(C)O)n1 [MK1775] the figure was inactive: -0.404. With `CNCC(O)c1ccc(O)cc1` (configuration not stated) [(?)-Synephrine] + C=CCn1c(=O)c2cnc(Nc3ccc(N4CCN(C)CC4)cc3)nc2n1-c1cccc(C(C)(C)O)n1 [MK1775] the figure was inactive: -0.117; with `O=C(Cc1ccc(Cl)c(Cl)c1)N1CCCCC1CN1CCCC1` (configuration not stated) + C=CCn1c(=O)c2cnc(Nc3ccc(N4CCN(C)CC4)cc3)nc2n1-c1cccc(C(C)(C)O)n1 [MK1775], inactive: -0.241. In the case of `C#CCOC(=O)C1=CCCN(C)C1` [Arecaidine propargyl ester hydrobromide] + C=CCn1c(=O)c2cnc(Nc3ccc(N4CCN(C)CC4)cc3)nc2n1-c1cccc(C(C)(C)O)n1 [MK1775] it was inactive: -0.661.

With `c1ccc(CCCN2CCN(CCOC(c3ccccc3)c3ccccc3)CC2)cc1` + C=CCn1c(=O)c2cnc(Nc3ccc(N4CCN(C)CC4)cc3)nc2n1-c1cccc(C(C)(C)O)n1 [MK1775], the “Z' of S-phase gammaH2AX difference (Z-score)” value is inactive: -0.0413. With `CC(C)C[C@H]1C(=O)N2CCC[C@H]2[C@]2(O)O[C@](NC(=O)[C@@H]3C=C4c5cccc6[nH]c(Br)c(c56)C[C@H]4N(C)C3)(C(C)C)C(=O)N12` [(+)-Bromocriptine methanesulfonate] + C=CCn1c(=O)c2cnc(Nc3ccc(N4CCN(C)CC4)cc3)nc2n1-c1cccc(C(C)(C)O)n1 [MK1775] the figure was inactive: 0.207; with `O=C(OC1CCN(CCCl)CC1)C(c1ccccc1)c1ccccc1` [4-Diphenylacetoxy-N-(2-chloroethyl)piperidine hydrochloride] + C=CCn1c(=O)c2cnc(Nc3ccc(N4CCN(C)CC4)cc3)nc2n1-c1cccc(C(C)(C)O)n1 [MK1775], inactive: 0.746.

For `C=CCN1CC[C@]23c4c5ccc(O)c4O[C@H]2/C(=N/N=C2\CC[C@@]4(O)[C@H]6Cc7ccc(O)c8c7[C@@]4(CCN6CC=C)[C@H]2O8)CC[C@@]3(O)[C@H]1C5` [Naloxonazine dihydrochloride] + C=CCn1c(=O)c2cnc(Nc3ccc(N4CCN(C)CC4)cc3)nc2n1-c1cccc(C(C)(C)O)n1 [MK1775], the “Z' of S-phase gammaH2AX difference (Z-score)” value was inactive: -0.718.

As to `CN1[C@@H]2CC[C@H]1C[C@@H](OC(=O)C(CO)c1ccccc1)C2` (some centres not stated) [Atropine sulfate] + C=CCn1c(=O)c2cnc(Nc3ccc(N4CCN(C)CC4)cc3)nc2n1-c1cccc(C(C)(C)O)n1 [MK1775], the “Z' of S-phase gammaH2AX difference (Z-score)” value was inactive: 0.143. In the case of `c1ccc(C2CC2)c(OCC2=NCCN2)c1` [Cirazoline hydrochloride] + C=CCn1c(=O)c2cnc(Nc3ccc(N4CCN(C)CC4)cc3)nc2n1-c1cccc(C(C)(C)O)n1 [MK1775] it was inactive: 0.157; in that of `CN1[C@@H]2CC[C@H]1C[C@@H](OC(c1ccccc1)c1ccccc1N)C2` (some centres not stated) [Aminobenztropine] + C=CCn1c(=O)c2cnc(Nc3ccc(N4CCN(C)CC4)cc3)nc2n1-c1cccc(C(C)(C)O)n1 [MK1775], inactive: -0.134. With `C[C@]12CCC(=O)C(O)=C1CC[C@@H]1[C@@H]2CC[C@]2(C)C(=O)CC[C@@H]12` [Formestane] + C=CCn1c(=O)c2cnc(Nc3ccc(N4CCN(C)CC4)cc3)nc2n1-c1cccc(C(C)(C)O)n1 [MK1775] the figure was inactive: -0.0303; with `Nc1ncnc2c1ncn2C1OC2COP(O)(=S)O[C@@H]2[C@@H]1O` (some centres not stated) [Rp-cAMPS triethylamine] + C=CCn1c(=O)c2cnc(Nc3ccc(N4CCN(C)CC4)cc3)nc2n1-c1cccc(C(C)(C)O)n1 [MK1775], inactive: -0.347; with `NCC(CP(=O)(O)O)c1ccc(Cl)cc1` (configuration not stated) [Phaclofen] + C=CCn1c(=O)c2cnc(Nc3ccc(N4CCN(C)CC4)cc3)nc2n1-c1cccc(C(C)(C)O)n1 [MK1775], inactive: 1.78. With `N[C@@H](Cn1cc(I)c(=O)[nH]c1=O)C(=O)O` [S-5-Iodowillardiine] + C=CCn1c(=O)c2cnc(Nc3ccc(N4CCN(C)CC4)cc3)nc2n1-c1cccc(C(C)(C)O)n1 [MK1775] the figure was inactive: 0.289.

The values are drawn from the supplement of paper PMC5355238.
